± gives the standard deviation. The list shows a part of the results, in another mix than the full data. Many of these values have a large error.
Tested on: MIWI (PIWIL1) piRISC loaded with L1MC piRNA (30 nt)
Test: pre-steady-state target cleavage rate (min^-1); MIWI and MILI are mouse PIWI proteins and EfPiwi is from a freshwater sponge; tags in brackets are library labels; higher = faster piRNA-guided slicing of the target
Settings: guide: L1MC piRNA 5'p-UAACUAAAUACUAUGCAAGCUGUAGGUCCU; auxiliary factor: 500 nM mouse GTSF1
Summary of the method: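 Cleave-'n-Seq measured uncleaved targets by sequencing after a transcribed, DNA-blocked target RNA library […] was mixed with 1 nM active affinity-purified piRISC holding one synthetic guide, with or without 500 nM GTSF1 partner protein, at 33 °C in HEPES–potassium acetate buffer for 0–8 or 0–960 min. Counts were normalised to depth and to weakly complementary targets, three trials were pooled, and k3 was capped at 0.0001 min^-1. A burst-and-steady-state fit gave the pre-steady-state cleavage rate.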
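Also: 1 nM active piRISC with 0.1 nM target library at 33 °C single turnover.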

| Sequence | pre-steady-state target cleavage rate |
| --- | --- |
| UCCUGGAUGUCGAACGUAAGUUAUUUAGUUA | 0.000439 ± 0.012 |
| UGGACCUACAGCUUGCAUAGUAUAUUAGUUA | 1.33 ± 0.079 |
| UCCUGGAUGUCGAACGUUAGUUUUUAGUAA | 0.000186 ± 0.023 |
| UCCUGGAUGUCGUUGCAUUGUAUUUAGAUA | 0.000188 ± 0.038 |

Same assay, conditions: guide: L1MC piRNA 5'p-UAACUAAAUACUAUGCAAGCUGUAGGUCCU; auxiliary factor: none (no GTSF1)

| Sequence | pre-steady-state target cleavage rate |
| --- | --- |
| UCCACCUACAGCUUGGUUAGUAUUUAGAAA | 0.000972 ± 0.0043 |
| UGGACCUAGUCCUUGCAUAGUAUUUUCAAA | 0.000773 ± 0.0041 |
| UCCUGGAUGUCGAACGUAAAUAUUUAGUUA | 0.000536 ± 0.0089 |
| UCCACCUACAGCUUGCAUAGAUAUUUAGUUA | 0.00139 ± 0.0041 |
| UCGACCUACAGCUUCCAUUGUAUUUAGUUA | 0.00216 ± 0.0025 |
| AGGACCUACAGCUUGCACUAGUAUUUAGUUA | 0.00102 ± 0.0077 |
| UGGACCUACAGCUACGAUAGUAUUUAGUUA | 0.000742 ± 0.0061 |
| UCCUGGAUGUCGAACGUUUGUAUUUAGUUA | 0.000187 ± 0.026 |
| UGGACCUACAGCAACCAUAGUAUUUAGAAA | 0.000272 ± 0.0093 |
| UGGACCUACACGAUGCAUAGUAUUUAGAAA | 0.00128 ± 0.0051 |
| UCCUGGAACAGCUUGCAUAGAUAUUAGAAA | 0.000997 ± 0.0071 |
| UCCACCUACAGCUUGCAUAGAUAUUACAAA | 0.000414 ± 0.012 |
| UCCUGGAUGUCGAACGUUAGAUAUUAGUUA | 0.000167 ± 0.032 |
| UCCACCUACAGCUACGAUAGUAUUUUCAAA | 0.000203 ± 0.016 |
| UGGACCUACAGGUUCCAUAGUAUUUAGUUA | 0.00148 ± 0.0045 |
| AGGACCUACAGCUUGCAUAGUAAAAAGUAA | 0.00149 ± 0.0052 |
| AGGACCUACAGCUUGCAUAGUAAAAAGAAA | 0.000448 ± 0.01 |
| UCGACCUACAGCUUGCAUAGAAUUUACAAA | 0.00298 ± 0.0032 |

Some values from the entries so far.
pre-steady-state target cleavage rate, AGGACCUACAGCUUGCAUAGUAAAAAGUAA reads 0.00149 ± 0.0052
pre-steady-state target cleavage rate, UCCACCUACAGCUUGCAUAGAUAUUACAAA reads 0.000414 ± 0.012

(list continues)

| Sequence | pre-steady-state target cleavage rate |
| --- | --- |
| UGGACCUACAGCUUGCACUAGUAUUUAGUUA | 0.000894 ± 0.0066 |
| UCCUGGAUGUCGAUGCAUAGUAAUUACUUA | 0.000428 ± 0.015 |
| UGGACCUACAGCUACCAUAGUAUUUUCAAA | 0.000147 ± 0.015 |
| UCCACCUUCAGCUUGCAUAGUAUUUACAAA | 0.00236 ± 0.0024 |
| UGGACCUACAGCUUCGUUAGUAUUUAGUAA | 0.001 ± 0.0043 |
| UCCACCUACUCCUUGCAUAGUAUUUACAAA | 0.002 ± 0.0026 |
| AGGACCUACAGCUUGGUAAGUAUUUAGUAA | 0.00109 ± 0.0084 |
| AGGACCUACAGCAACCAUAGUAUUUUCAAA | 0.000189 ± 0.018 |
| AGGACCUACAGCUUGCAUUAGUAUUUAGUUA | 0.00148 ± 0.0055 |
| UGGACCUACAGCUUGCAUUCAAUUUAGAAA | 0.000239 ± 0.0084 |
| UCGACCUACAGCUUGCAUAGUUAAUACAAA | 0.00094 ± 0.0095 |
| UCCUGGAUCAGCAUGCAUAGUAUUUACAAA | 0.000478 ± 0.0078 |
| UCCACCUACAGCUUGCAUAGUAAUUUCAAA | 0.000566 ± 0.013 |
| AGGACCUACACGAUGCAUAGUAUUUAGAAA | 0.00149 ± 0.0044 |
| UGGACCUACAGCUUGGAUAGUAUUUUCAAA | 0.00151 ± 0.0033 |
| UCCACCUACAGCUACCAUAGUAUUUAGAAA | 0.000857 ± 0.0081 |
| UCGACCUACAGCUUGCACUAGUAUUUAGUUA | 0.00101 ± 0.0082 |
| UCCUGCUACAGCUUGCAUAGUAAAUAGAAA | 0.000333 ± 0.011 |
